# Measured values from PubChem BioAssay AID1347076 (National Center for Advancing Translational Sciences (NCATS), 2019).
# About 13,000 (3.2%) of roughly 400,000 compounds were called active. Inconclusive means that the source gave no clear call. Such entries were picked first, then a sample of the others. The call rests on the fitted dose curve; in most records, active means well fitted cell-killing curve with a large enough effect; inconclusive means small, poorly fitted or top-dose-only effect, or effect the other way; inactive means flat fitted curve, though single readings scatter. Potencies beside an inconclusive call are fits to weak or partial responses and may not hold up.
# Assay: qHTS assay for MDR1-selective chemotherapeutics: Primary screen using the drug-selected MDR subline cells KB-V1; further: nearly all actives have a fitted effect of over 60% in size
# Conditions: KB-V1 MDR cells viability, CellTiter-Glo, 72 h; activity change, negative = cytotoxicity: at 46.1 µM (top of the series)
# Excerpt: A prime difficulty in effectively treating cancer is the development of cellular resistance to multiple structurally unrelated anticancer drugs, a phenomenon known as multidrug resistance (MDR). […] Numerous strategies to overcome P-gp-mediated MDR have been explored, including the design of drugs that evade recognition and efflux, and development of inhibitors to block efflux and restore drug accumulation. […] An alternative approach is to exploit resistance by identifying drugs that target MDR cells over the non-resistant parental cells from which they were selected. […] The development of MDR1-selective agents represents a new strategy for resolving multidrug resistance, as it remains a long-standing clinical challenge for cancer chemotherapy.
# Our goal is to identify compounds that selectively kill P-gp-expressing MDR cells. We will identify MDR1-selective compounds by comparing toxicity of compounds in the screening library against parental, drug-naive (KB-3-1) adenocarcinoma cells as well as their drug-selected MDR sub-line (KB-V1). The differential toxicity of compounds against these two cell lines will be used to identify MDR1-selective compounds, whose cytotoxicity is potentiated, rather than diminished, by P-gp expression. This assay will be utilized to conduct a quantitative high-throughput screen (qHTS) in collaboration with the NIH Chemical Genomics Center to identify selective agents, and probe hits arising from the screen will be validated using secondary assays and characterized through a well-established follow-up research program. This screen was run against the entire NCGC library collection of about 400,000 compounds.
# NIH Molecular Libraries Probe Production Network [MLPCN]
# NIH Chemical Genomics Center [NCGC]
# PI: Michael Gottesman, National Cancer Institute, NIH
# Briefly, 5 microL of media containing either KB-V1 cells (columns 1-2, 4-48) are dispensed into Greiner white, treated solid-bottom 1536-well assay plates (media-only control is added to column 3). Compounds are then transferred via Kalypsys pin tool equipped with 1536-pin array (10 nL slotted pins, V&P Scientific, San Diego, CA). Following addition of compound, the plates are incubated at 37 degrees C for 72 hours. CellTiter-Glo (2.5 µL/well) is then added, and the plates are read in a ViewLux reader (Perkin-Elmer, clear luminescence filter, 1 second exposure, 1x binning) following a 10 minute incubation. All cells are dispensed in DMEM phenol-red free media containing 10% FBS.
# Library plates were screened starting from the lowest and proceeding to the highest concentration. Vehicle-only plates, with DMSO being pin-transferred to columns 5-48, will be inserted uniformly at the beginning and the end of each library in order to monitor and record any shifts in the background, which can be affected by reagent dispensers or loss in enzyme activity over time. Screening data will be corrected, normalized, and concentration-effect relationships will be derived by using publicly-available NCGC, NCATS curve fitting algorithms (http://ncgc.nih.gov/pub/openhts).
# On the % scale 0 is the no-effect control and ±100 the full control effect; potency means the concentration at half of the fitted maximal effect.
Structure (SMILES),"activity change, negative = cytotoxicity",Potency
CCOC(=O)C1=C(C)Nc2ncnn2C1c1cccs1 (stereo not given),inactive: -0.589%,
O=C(CCS(=O)(=O)c1cc(Br)cc2c1N(C(=O)C1CC1)CC2)N1CCN(c2cccc(Cl)c2)CC1,,"inconclusive: 16.4 µM [rising, partial curve, poor fit]"
CC(C)n1c(=O)c2ccccc2n1Cc1cn(-c2ccc(Cl)cc2)nn1,,"inconclusive: 4.61 µM [cytotoxic, full curve, poor fit]"
Cc1cc(-c2ccccc2)nc(N(C)NC(=O)C(C)(C)C)c1S(C)(=O)=O,inconclusive: -33%,
COc1ccccc1Nc1nc(N)nc(CN2CCC(Cc3ccccc3)CC2)n1,,"inconclusive: 23.1 µM [cytotoxic, partial curve, poor fit]"
CCSc1nnc(SCC(=O)c2c(N)n(C)c(=O)n(C)c2=O)s1,inactive: -7.5%,
COc1ccc(-c2nc3c(C(=O)NCCN(C)C)cccc3c3ccccc23)cc1,,active: 2.31 µM
COC(=O)c1ccc(CNC(=O)c2ccc(S(=O)(=O)N3CCCC(C)C3)cc2)cc1 (stereo not given),,active: 16.4 µM
Clc1cccc(CSc2ccc(-c3cccnc3)nn2)c1,,"inconclusive: 0.0052 µM [rising, full curve, poor fit]"
c1ccc2c(c1)NC1(CCCCC1)n1c-2nc2ccccc21,,"inconclusive: 3.26 µM [cytotoxic, partial curve, poor fit]"
CCC(=O)N1CCc2cc(S(=O)(=O)NC(C(=O)NCCc3ccc(OC)c(OC)c3)C(C)C)ccc21 (stereo not given),inactive: -9.22%,
CNC(=O)COC(=O)c1cc(-c2ccco2)nc2ccccc12,,"inconclusive: 29.1 µM [rising, single point]"
O=C(Cn1c(=O)n(CCc2ccccc2)c(=O)c2cccnc21)Nc1ccc(F)cc1,inactive: -3.04%,
COc1cc(/C=C(\C#N)c2nc3ccccc3[nH]2)ccc1Oc1ccc([N+](=O)[O-])cn1,inactive: -27.4%,
CS(=O)(=O)c1ccc(S(=O)CC(=O)Oc2ccc(Cl)cc2)c([N+](=O)[O-])c1 (stereo not given),,"inconclusive: 18.4 µM [cytotoxic, partial curve]"
CCc1ccc2oc(=O)cc(CN3CCN(c4ccc(F)cc4)CC3)c2c1,,"inconclusive: 10.3 µM [cytotoxic, partial curve, poor fit]"
Cc1cc(C(=O)N2CCN(c3ccccc3)CC2)c2c(C)nn(-c3cccc(F)c3)c2n1,,"inconclusive: 20.6 µM [rising, single point]"
Clc1ccc(-c2nnnn2-c2ccc(Cl)cc2)cc1,inactive: -2.26%,

Structure (SMILES),"activity change, negative = cytotoxicity",Potency
CCCCn1c(=NC(=O)c2ccc3c(c2)OCO3)c(C#N)cc2c(=O)n3cccc(C)c3nc21,,"inconclusive: 18.4 µM [cytotoxic, partial curve]"
CCOC(=O)C(CC)n1cnc2c(cnn2-c2ccc(Cl)cc2)c1=O (stereo not given),,"inconclusive: 23.1 µM [cytotoxic, single point]"
CC1=C(C(=O)OC2CCCC2)C(c2c(Cl)cccc2Cl)CC(=O)N1 (stereo not given),,"inconclusive: 23.1 µM [cytotoxic, partial curve, poor fit]"
CC[C@@]12C(=O)N(c3cccc(Cl)c3)C(=O)N1[C@H](c1ccc(Br)cc1)[C@@H]1C(=O)N(C(C)(C)C)C(=O)[C@@H]12,,"inconclusive: 20.6 µM [cytotoxic, single point]"
CCSc1nnc(-c2ccc(Cl)cc2)c2ccccc12,inactive: 10.4%,
CCCNS(=O)(=O)c1cc(-c2nn3c(C)nnc3c3ccccc23)ccc1C,inactive: -23.3%,
COc1ccccc1CCNC(=O)Cc1ccc(NC(=O)N2CCSc3ncccc32)cc1,inactive: 4.5%,
COc1ccc(C2CC(c3ccc(Cl)cc3Cl)Nc3nc(N)nn32)cc1 (stereo not given),inactive: 0.415%,
Cc1ccc(CNC(=O)C2CCCN2S(=O)(=O)c2ccc(F)cc2)cc1 (stereo not given),inactive: -7.73%,
CC1(COS(N)(=O)=O)CCCCC1,inactive: 14.1%,
Cc1onc(-c2ccc3c(c2)OCO3)c1-c1ccc2[nH]ccc2c1,,"inconclusive: 25.9 µM [cytotoxic, single point]"
Cc1ccc2oc(-c3ccc(Cl)c(NC(=O)Cc4ccccc4)c3)nc2c1,inactive: 0%,
CC(C)(C)NC(=O)c1ccncc1,,"inconclusive: 29.1 µM [rising, single point]"
Cc1sc2nc(-c3cccnc3)nc(Cl)c2c1-c1ccccc1,,active: 13 µM
COc1ccc(-c2ccc(-c3nnc(Cc4ccc(OC)c(OC)c4)o3)cc2)cc1,,"inconclusive: 2.91 µM [cytotoxic, partial curve, poor fit]"
O=C(NCCc1ccccc1)c1nc2c(nnn2Cc2ccccc2Cl)c(=O)[nH]1,,active: 14.6 µM
COc1ccccc1CNC(=O)CCNS(=O)(=O)c1ccc2c(c1)CC(C)N2C(C)=O (stereo not given),,"inconclusive: 25.9 µM [rising, single point]"
